This experiment has as its target Tau (endogenous, total Tau detected with DA9) (mouse (endogenous in N2a)) (UniProt P10637). The experiment is described as follows: proximity ligation.

Chains of the proteins cited; added tags and fusions are not shown. Lines headed by an entry give the natural chain unless they say otherwise; changes in a name come on top.
UniProt P10637: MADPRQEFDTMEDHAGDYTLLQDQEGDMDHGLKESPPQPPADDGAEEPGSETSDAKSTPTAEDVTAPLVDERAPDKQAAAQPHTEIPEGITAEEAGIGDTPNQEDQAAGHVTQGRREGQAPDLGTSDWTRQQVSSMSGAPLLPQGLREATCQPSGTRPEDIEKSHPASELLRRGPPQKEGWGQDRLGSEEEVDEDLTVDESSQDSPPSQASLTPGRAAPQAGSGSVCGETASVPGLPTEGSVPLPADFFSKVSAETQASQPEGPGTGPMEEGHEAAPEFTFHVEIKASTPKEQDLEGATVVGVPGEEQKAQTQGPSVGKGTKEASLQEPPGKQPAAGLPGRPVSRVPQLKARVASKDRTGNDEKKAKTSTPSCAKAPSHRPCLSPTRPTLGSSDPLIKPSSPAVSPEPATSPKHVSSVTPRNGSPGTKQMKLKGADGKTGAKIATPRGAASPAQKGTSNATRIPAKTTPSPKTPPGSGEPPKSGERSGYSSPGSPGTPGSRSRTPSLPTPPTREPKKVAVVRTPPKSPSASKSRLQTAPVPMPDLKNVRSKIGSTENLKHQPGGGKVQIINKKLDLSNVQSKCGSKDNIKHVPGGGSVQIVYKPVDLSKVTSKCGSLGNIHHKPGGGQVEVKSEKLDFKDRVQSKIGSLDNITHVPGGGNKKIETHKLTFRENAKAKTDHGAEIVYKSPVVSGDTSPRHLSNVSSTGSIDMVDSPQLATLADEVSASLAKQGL
UniProt O14964: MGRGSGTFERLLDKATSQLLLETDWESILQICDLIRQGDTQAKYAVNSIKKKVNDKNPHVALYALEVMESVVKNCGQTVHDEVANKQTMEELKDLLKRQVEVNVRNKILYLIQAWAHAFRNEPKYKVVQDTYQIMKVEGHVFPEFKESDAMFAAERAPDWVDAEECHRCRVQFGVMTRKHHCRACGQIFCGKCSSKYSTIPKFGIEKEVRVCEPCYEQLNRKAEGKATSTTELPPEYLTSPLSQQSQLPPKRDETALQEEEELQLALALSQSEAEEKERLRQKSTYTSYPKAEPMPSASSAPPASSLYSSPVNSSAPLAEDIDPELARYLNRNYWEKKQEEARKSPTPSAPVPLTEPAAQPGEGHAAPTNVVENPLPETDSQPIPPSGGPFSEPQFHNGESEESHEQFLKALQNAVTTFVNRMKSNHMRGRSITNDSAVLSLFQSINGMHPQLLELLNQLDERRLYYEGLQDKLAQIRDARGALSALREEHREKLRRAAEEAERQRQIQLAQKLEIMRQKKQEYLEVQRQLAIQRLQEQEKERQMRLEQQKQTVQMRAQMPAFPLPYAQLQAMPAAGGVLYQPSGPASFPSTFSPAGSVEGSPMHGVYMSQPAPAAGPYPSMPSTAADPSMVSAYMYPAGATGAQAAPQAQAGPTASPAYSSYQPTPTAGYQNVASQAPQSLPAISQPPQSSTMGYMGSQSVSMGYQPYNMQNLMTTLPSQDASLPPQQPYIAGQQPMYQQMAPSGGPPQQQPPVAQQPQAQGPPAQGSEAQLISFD

These are yes or no findings as the source states them, for the method shown. Binding seen in cells or lysates may run through a third protein. Binding calls can cover weak binding; strength is not graded here.

In the case of FLAG-Hrs (from UniProt O14964 1-777), the binding result was “binds”.

With “mCh-tagged Hrs (from UniProt O14964 1-777)”, the binding entry is recorded as “binds”.

The values are drawn from publication doi:10.1101/352724.
